Experimental data from PubChem BioAssay AID2685 (National Center for Advancing Translational Sciences (NCATS), 2010).
Several values for one entry are separate records, joined by “and”; a condition that tells them apart may be missing. Identical values can stand only once. Some of the results follow. These are further read-outs of the screen, such as a control signal, another cell line or another target. No call is given for them. Most of these compounds were active or inconclusive in the main read-out, so they are no random draw. Words in brackets tell the shape of the fitted curve; partial curves, single points and poor fits give uncertain potencies.

Experiment: qHTS Assay for Lipid Storage Modulators in Drosophila S3 Cells;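 as to cell number change: cells counted by Cell Tracker Red CMTPX staining in the red channel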
Conditions: BODIPY lipid droplet fluorescence, 18-24 h; for cell number change: measured here: cell count max response, cells fed with added oleic acid
Summary of the method: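 Laser-scanning cytometry quantifies lipid droplet accumulation (500–530 nm total intensity; droplet/cell object ratio) in oleic acid-fed (400 uM added) Drosophila S3 cells treated with a concentration series. 20 uM Triacsin C defined 100% inhibition.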

[1] = measured here: cell number channel AC50, cells fed with added oleic acid
[2] = measured here: lipid fluorescence (Fed channel) AC50, cells fed with added oleic acid

Row | Structure (SMILES) | cell number change | AC50 [1] | AC50 [2]
1 | Cc1cccc(NC(=O)NCCN2C(=O)C3C4C=CC(C4)C3C2=O)c1 (centres undefined) | 33.8% | 29.1 µM [rising, single point] | –
2 | Cc1c(NC(=O)C(C)Sc2ccccc2)c(=O)n(-c2ccccc2)n1C (centres undefined) | 6.41% | – | 29.1 µM [rising, single point]
3 | COc1ccc(-c2cc(C(=O)N3CCN(c4ncccn4)CC3)c3ccccc3n2)cc1 | -8.41% | – | 0.00461 µM [rising, full curve, poor fit]
4 | COc1ccc2[nH]c3c(NCCCOC(C)C)ncnc3c2c1 | -25.2% | – | 0.0259 µM [falling, full curve, poor fit]
5 | CCOC(=O)C1=C(C)NC(=O)C(C(N)=O)C12CCCC2 (centres undefined) | -54.7% | 3.66 µM [falling, full curve] | 3.66 µM [falling, full curve]
6 | CC(NC(=O)c1cccc(OC2CCN(C(=O)C3CC3)CC2)c1)c1ccc(F)cc1 (centres undefined) | – | – | 0.58 µM [falling, single point]
7 | O=C(NC(Nc1ccccn1)C(Cl)(Cl)Cl)c1ccccc1 (centres undefined) | -38.5% | – | –
8 | CC1CCCCN1C(=O)c1cccc(NC2=C(Cl)C(=O)N(Cc3ccccc3)C2=O)c1 (centres undefined) | -20.7% | – | 0.82 µM [rising, full curve, poor fit]
9 | CCCCOc1ccc(/C=N/NC(=O)c2csc(C)c2C)cc1 | 24.1% | – | –
10 | Nc1ccccc1N=Nc1ccccc1N | -17.7% | – | –
11 | Cn1cc(CN2CCC(C(=O)Nc3cccc(-c4cscn4)c3)CC2)cn1 | 13.9% | – | 29.1 µM [rising, single point]
12 | Cc1cccc(NCc2cc(Cl)ccc2O)n1 | -49.4% | 23.1 µM [falling, partial curve] | 23.1 µM [falling, single point]
13 | O=C(COC(=O)c1c[nH]c2ccccc12)Nc1ccc(F)cc1 | -28.3% | – | 20.6 µM [falling, single point]
14 | COc1cc(C=O)cc(Br)c1OCC(N)=O | -8.94% | – | 25.9 µM [rising, single point]
15 | Cn1nc(-c2ccccc2)c(C(O)c2ccccc2C(F)(F)F)c1Cl (centres undefined) | -89.8% | 18.4 µM [falling, partial curve] | 29.1 µM [falling, single point]
16 | O=C(CNC(=O)c1ccc(S(=O)(=O)N2CCCC2)cc1)N/N=C/c1c(Cl)cccc1Cl | 14.1% | – | 29.1 µM [rising, single point]
17 | Cc1ccccc1OCC(=O)Nc1ccc2c(c1)ncn2C | -17.1% | – | 0.13 µM [falling, full curve, poor fit]
18 | Fc1ccc(C2=NN(c3ccccc3)C(c3ccco3)C2)cc1 (centres undefined) | 7.4% | – | –
19 | COc1cc(C(=O)Nc2cccc(-c3nc4ncccc4o3)c2C)cc(OC)c1OC | 12.4% | 4.11 µM [rising, single point] | 0.58 µM [rising, full curve, poor fit]
20 | C/C(=N\NC(=O)c1cc(-c2ccc(C)s2)[nH]n1)c1ccncc1 | -5.88% | – | –
21 | CCC(C)NC(=O)c1ccc2c(Cl)c3c(nc2c1)CCC3 (centres undefined) | -24.7% | – | 0.092 µM [falling, full curve, poor fit]

Row | Structure (SMILES) | cell number change | AC50 [1] | AC50 [2]
22 | O=C(c1ccc(N2CCOCC2)c([N+](=O)[O-])c1)N1CCN(Cc2ccccc2)CC1 | -12.8% | – | –
23 | COc1ccc(OC)c(NC(=O)C2CCCN(S(=O)(=O)c3cccc4cccnc34)C2)c1 (centres undefined) | – | – | 0.00517 µM [rising, full curve, poor fit]
24 | Cc1ccc(N=C2NC(=O)/C(=C/c3cn(C)c4ccccc34)S2)cc1C | 50% | 1.64 µM [rising, full curve] | 4.11 µM [rising, partial curve]
25 | O=c1c2nnn(-c3ccc(Cl)cc3)c2ncn1Cc1ccccn1 | 37.7% | 18.4 µM [rising, single point] | 29.1 µM [rising, single point]
26 | c1cncc(Nc2nc(-c3cccnc3)cs2)c1 | -13.3% | – | 18.4 µM [rising, single point]
27 | CC1(C)OC(=O)C=C(CC2NS(=O)(=O)OC3CCCCC23)O1 (centres undefined) | 7.78% | – | –
28 | Cc1ccccc1Oc1ncnc(N)c1[N+](=O)[O-] | -11.3% | 6.51 µM [falling, single point] | 6.51 µM [falling, partial curve]
29 | Cc1cccc(OCc2nnc(SCC(=O)NCC3CCCO3)n2C)c1 (centres undefined) | -11.9% | 0.164 µM [falling, full curve, poor fit] | 29.1 µM [rising, single point]
30 | Oc1ccc(COCc2ccccc2)c2cccnc12 | 3.24% and -44.8% | 18.4 µM [falling, single point] | 14.6 µM [falling, partial curve]
31 | O=C(c1ccc(CSc2ccccc2)cc1)N1CCN(c2ccccc2)CC1 | 11.4% | – | 0.82 µM [falling, single point]
32 | CC(C)CC(=O)N1CCN(C(=O)c2cccc(F)c2)CC1 | -15.9% | – | 23.1 µM [rising, single point]
33 | CCCn1c(SCN2C(=O)c3ccccc3C2=O)nc2cc(Cl)ccc2c1=O | -17.5% | – | 6.51 µM [rising, single point]
34 | COc1ccc(-c2ccc(=O)n(CC(=O)NCC3COCCO3)n2)cc1 (centres undefined) | -4.82% | – | –
35 | Cc1ccc(SCC(=O)Nc2ccc3c(c2)OCCO3)cc1 | – | – | 0.326 µM [falling, full curve]
36 | FC(F)(F)c1ccc(Cl)c(NC2=NCCCCC2)c1 | 9.72% | – | 6.51 µM [falling, single point]
37 | CCOc1cc(-c2sc(Nc3cc(C)ccc3OC)n[n+]2-c2ccccc2)ccc1OC | -37.7% | – | 18.4 µM [falling, single point]
38 | Cc1cc(S(=O)(=O)N2CCCC2)ccc1OCC(=O)N1CCC(C(N)=O)CC1 | -13.2% | – | 4.11 µM [falling, single point]
39 | C/C(=C\C(=O)Nc1nccs1)c1ccccc1 | -9.89% | – | 14.6 µM [rising, partial curve]
40 | CN(CCCNC(=O)C1CCC(CNS(=O)(=O)c2ccccc2)CC1)Cc1ccccc1 (centres undefined) | 19.8% | – | –
41 | O=C(COC(=O)C1(c2ccccc2F)CCCC1)N1CCN(C(=O)c2ccco2)CC1 | -2.31% | – | –
42 | CCC1CCCCN1C(=O)COC(=O)c1ccc(Br)o1 (centres undefined) | -5.49% | – | 23.1 µM [falling, single point]

Row | Structure (SMILES) | cell number change | AC50 [1] | AC50 [2]
43 | O=C(CSc1ccc(F)cc1)Nc1ccc(N2CCOCC2)c(Cl)c1 | -10.1% | – | 4.61 µM [rising, single point]
44 | COc1cccc(C(=O)Nc2cccc3cccnc23)c1OC | -2.35% | – | –
45 | CCCCN(C(=O)/C=C/c1ccco1)c1c(N)n(CC(C)C)c(=O)[nH]c1=O | -23.4% | – | 32.6 µM [falling, single point]
46 | Cc1ccc(OCC(=O)N2CCCCC2)c(Br)c1 | -0.337% | – | 0.0326 µM [falling, full curve, poor fit]
47 | O=C(COC(=O)Cc1ccc(S(=O)(=O)N2CCOCC2)s1)NCc1ccc(Cl)cc1 | – | – | 2.31 µM [falling, partial curve]
48 | O=S(=O)(NC1CC1)c1ccc(S(=O)(=O)N2CCCC(c3nc(-c4cccnc4)no3)C2)cc1 (centres undefined) | -25.8% | – | 0.651 µM [rising, full curve]
49 | CCCn1c(N)c(C(=S)NC(=O)C2CC2)c(=O)n(C)c1=O | -38.7% | 0.013 µM [falling, full curve, poor fit] | 0.0164 µM [falling, full curve]
50 | Cn1c(=O)n(C)c2cc(NS(C)(=O)=O)ccc21 | 0.429% | – | 0.0731 µM [falling, full curve, poor fit]
51 | O=C1C=C(c2ccc(Oc3ccccc3)cc2)C[C@@H](c2ccc(Cl)cc2)C1 | 7.63% | 0.0731 µM [falling, single point] | –
52 | Cc1ccc(NC(=O)c2ccc(Cl)c(S(=O)(=O)N3CCCCCC3)c2)nc1 | 1.02% | – | 2.59 µM [rising, single point]
53 | [O-]/C(=C(\C(=S)NCc1ccc2c(c1)OCO2)[n+]1ccccc1)c1ccc(Cl)s1 | -10.7% | 4.11 µM [rising, single point] | –
54 | Cc1ccccc1C(=O)Nn1cnnc1 | 3.81% | – | 20.6 µM [rising, single point]
55 | CN1CCN(C(=S)NC(=O)/C=C/c2ccccc2)CC1 | 7.4% | – | 0.82 µM [falling, full curve]
56 | CCN(CC)C(=O)n1cnc(-c2ccccc2)c1-c1ccccc1 | 15.5% | – | 3.66 µM [rising, full curve]
57 | Cc1ccc(NC(=O)Nc2ccc3c(c2)OCO3)nc1 | 7.09% | – | 1.64 µM [rising, single point]
58 | Cc1ccc(C(=O)CNc2cc(C)ccc2C)cc1 | -15.3% | – | –
59 | CCOc1ccc(NS(=O)(=O)c2ccc(C(=O)N(C)CC(=O)Nc3ccc(OC)cc3)cc2)cc1 | -19.6% | – | –
60 | CCCCN(C)C(=O)c1cn(-c2cccc(OC)c2)c(=O)c2ccccc12 | -9.86% | 0.259 µM [falling, full curve, poor fit] | 0.731 µM [falling, full curve, poor fit]
61 | O=C(Nc1cccc(S(=O)(=O)N2CCCCC2)c1)c1c2c(nc3ccccc13)CCN(Cc1ccccc1)C2 | -0.249% | – | 29.1 µM [falling, single point]
62 | COc1ccc2nc(NC(=O)CCn3cccc3)sc2c1 | 37.4% | 23.1 µM [rising, single point] | –
63 | CCNS(=O)(=O)c1c(C)cc(C)c(N(C)S(=O)(=O)c2ccccc2)c1C | 27.3% | – | –
